Assay results: patent US4456604A, “1-(3-Halo-2-pyridinyl) piperazine” (Merck & Co., Inc., priority 1982, dated 1984)

Test system: α2-adrenergic receptor
Test: α2-adrenergic receptor binding ([3H] clonidine binding site, calf cerebral cortex)
Conditions: Kiα1/Kiα2
Procedure: The α1 - and α2 -adrenergic receptor binding was determined for 1-(3-halo-2-pyridinyl)piperazines and a number of other structurally related compounds shown in Table I.
Binding to the α2 -adrenergic receptor was determined by the method of Lyon and Randall, Life Sciences, 26, 1121 (1980) and also is expressed in Table I as Ki representing the affinity of each compound for the [^3 H] clonidine binding site in calf cerebral cortex.

| SMILES | Ratio α1/α2 |
| --- | --- |
| Fc1cccnc1N1CCNCC1 [Compound 1, 1-(3-fluoro-2-pyridinyl)piperazine] | 277 |
| Clc1cccnc1N1CCNCC1 [Compound 2, 1-(3-chloro-2-pyridinyl)piperazine] | 228 |
| Brc1cccnc1N1CCNCC1 [Compound 3, 1-(3-bromo-2-pyridinyl)piperazine] | 135 |
| Ic1cccnc1N1CCNCC1 [Compound 4] | 38 |
| CN1CCN(c2ncccc2Br)CC1 [Compound 5] | 55 |
| Clc1cccc(N2CCNCC2)n1 [Compound 6] | 26 |
| c1ccc(N2CCNCC2)nc1 [Compound 7] | 65 |
| Clc1cncc(N2CCNCC2)n1 [Compound 9] | 19 |
| Clc1nccnc1N1CCNCC1 [Compound 10] | 163 |
